From publication PMC3738564
Results are given in words; binding and its absence hold for the method and conditions named. In cells and extracts the contact can be indirect. For part of these data: Binding can be weak; no strength is given.

Legend:
[1] = molecular target: T1, β-dystroglycan (mouse (endogenous in skeletal muscle)) (UniProt Q62165); experiment: co-IP; β-dystroglycan precipitated with MANDAG2 from mdx/Utrn-/- (no dystrophin, no utrophin) mouse quadriceps lysate (1% digitonin, 0.05% NP-40); Western blot
T1 sequence: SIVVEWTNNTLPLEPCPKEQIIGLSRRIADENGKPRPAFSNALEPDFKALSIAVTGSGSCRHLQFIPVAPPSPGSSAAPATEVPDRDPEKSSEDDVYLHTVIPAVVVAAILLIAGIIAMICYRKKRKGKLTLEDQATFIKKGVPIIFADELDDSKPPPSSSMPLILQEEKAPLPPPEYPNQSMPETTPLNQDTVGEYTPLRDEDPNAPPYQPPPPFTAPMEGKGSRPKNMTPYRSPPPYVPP

[2] = molecular target: T1, β-dystroglycan (mouse (endogenous in skeletal muscle)); experiment: co-IP; β-dystroglycan precipitated with MANDAG2 on protein G beads from wild type mouse quadriceps lysate (1% digitonin, 0.05% NP-40; 1 mg protein); Western blot; also done on mdx and mdx/Utrn-/- lysates
[3] = molecular target: T1, β-dystroglycan (mouse (endogenous in skeletal muscle)); experiment: co-IP; β-dystroglycan precipitated with MANDAG2 from mdx (dystrophin-deficient) mouse quadriceps lysate (1% digitonin, 0.05% NP-40); Western blot

Substance: α2-dystrobrevin (mouse (endogenous in skeletal muscle))
- binding [1]: binds weakly
- binding [2]: binds

Substance: α1-dystrobrevin (from UniProt Q9D2N4-2)
- binding [1]: binds weakly
- binding [2]: binds

Substance: α3-dystrobrevin (mouse (endogenous in skeletal muscle))
- binding [3]: no binding (only in mdx muscle (no dystrophin))
- binding [2]: binds
